PubChem BioAssay AID1347075 (National Center for Advancing Translational Sciences (NCATS), 2019)
Values joined by “and” are separate entries in the source; they are usually repeats but may differ in a detail not shown here. Equal values may be shown once. Among all 400,000 compounds or so, about 5,500 (1.4%) were called active. The inconclusive results got no clear call from the source; some entries with a clear call stand among them for comparison. Calls follow the shape of the dose curve; as a rule, active = well fitted cell-killing curve with a large enough effect; inconclusive = small, poorly fitted or top-dose-only effect, or effect the other way; inactive = flat fitted curve, though single readings scatter. Potencies beside an inconclusive call are fits to weak or partial responses and may not hold up. Some compounds were tested as several samples or in several runs, with calls that do not always agree.

Assay: qHTS assay for MDR1-selective chemotherapeutics: Primary screen using the parental adenocarcinoma cell KB-3-1; also: nearly all actives have a fitted effect of over 60% in size
Settings: KB-3-1 viability, CellTiter-Glo ATP luminescence, 72 h; activity change, negative = cytotoxic: at 46.1 µM (top of the series)
How it was run: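 Viability of parental KB-3-1 cells, measured by CellTiter-Glo luminescence, followed a 72 h incubation at 37 °C with pinned compounds in phenol-red-free DMEM containing 10% FBS.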
% is scaled to controls: 0 for no effect and ±100 for the full control effect; potency is read from the fitted curve at half-maximal effect.

SMILES	Potency	activity change, negative = cytotoxic
Cc1ccc(Cn2cc(CN(C)C3CN(Cc4cn(Cc5ccc(C)cc5)nn4)S(=O)(=O)C3)nn2)cc1 (stereo unspecified)	inactive	
CCC(c1nnnn1C1CCCCC1)N(Cc1ccco1)Cc1cc2ccc(OC)cc2[nH]c1=O (stereo unspecified)	inconclusive: 29.1 µM [cytotoxic, single point]	
Nc1nc(N)c(N=O)c(Nc2cccc(Cl)c2)n1	inactive	
CCC(C)NC(=O)CSc1c2c(nc3ccccc13)CCCC2 (stereo unspecified)	inconclusive: 18.4 µM [cytotoxic, partial curve, poor fit]	
NS(=O)(=O)c1ccc(C(=O)Nc2ccc(-c3nc4cccnc4s3)cc2)cc1	inconclusive: 23.1 µM [rising, single point]	
CCCSc1ccc2nc(NC(=O)OC)[nH]c2c1	active: 1.64 µM and active: 1.16 µM	
NNC(=O)c1nnn(-c2nonc2N)c1-c1cccs1	inactive	
CN(c1ccc(C(=O)Nc2ccc3c(c2)OCO3)cc1)S(C)(=O)=O	inconclusive: 23.1 µM [cytotoxic, single point]	
CC(C)C[C@H]1CNC(=S)N1C[C@H]1CCCN1C[C@H](CC(C)C)N1C[C@H](Cc2ccc(O)cc2)N(CC2CCCCCC2)C1=S	inconclusive: 29.1 µM [cytotoxic, single point]	
Cc1nn(-c2ccc(Cl)cc2)c2[nH]c(=O)c(CNCc3ccc4c(c3)OCO4)cc12	inconclusive: 18.4 µM [cytotoxic, single point]	
CC(NC(=O)c1ccc([N+](=O)[O-])o1)C1CC2CCC1C2 (stereo unspecified)	inconclusive: 23.1 µM [cytotoxic, single point]	
CCOC(=O)C(O)C1CCc2c([nH]c3ccc(C)cc23)C1=O (stereo unspecified)	inconclusive: 20.6 µM [cytotoxic, single point]	
O=C(COc1ccc(F)cc1)Nc1nc(-c2cccnc2)cs1	inconclusive: 0.326 µM [rising, full curve]	
Nc1nc(Cl)nc2c1ncn2C1CC(O)C(CO)O1 (stereo unspecified)	active: 8.2 µM	
Cc1cc(C)c2[nH]c(=O)c(CN(Cc3ccccc3)C(=S)NCCCN(C)C)cc2c1	inconclusive: 23.1 µM [cytotoxic, single point]	
COc1ccccc1NS(=O)(=O)c1cc(C(=O)N2CC(C)CC(C)C2)ccc1C (stereo unspecified)	inactive	
CN1CCN(C2=Cc3cc(Cl)ccc3Sc3cc(F)ccc32)CC1	inconclusive: 29.1 µM [cytotoxic, single point]	
CC(C)CC[n+]1ccccc1/C=C/c1ccc(N(C)C)cc1	active: 1.46 µM	
CCOc1ccccc1NC(=O)CCc1c(C)nn(-c2ccc(N3CCOCC3)nn2)c1C	inactive	
CC1(C)CC(=O)C2=C(C1)OC(N)=C(C#N)C2C#Cc1ccccc1 (stereo unspecified)	inactive	
COc1cc(Nc2ncc3c(n2)CCN(C(=O)Nc2ccc(C(C)C)cc2)C3)cc(OC)c1OC	inconclusive: 13 µM [cytotoxic, partial curve, poor fit]	
CSc1ccc(NC(=O)Nc2ccccc2C(N)=O)cc1	inactive	
N/C(=N\c1nc2ccccc2o1)NC(=O)c1ccc(Cl)cc1	inconclusive: 20.6 µM [cytotoxic, single point]	
Cc1cc2nc3ccc(N(C)C)cc3nc2cc1N	inconclusive: 29.1 µM [cytotoxic, single point]	

Two compounds picked at random from those above:
SMILES	Potency	activity change, negative = cytotoxic
COc1ccccc1NS(=O)(=O)c1cc(C(=O)N2CC(C)CC(C)C2)ccc1C (stereo unspecified)	inactive	
CN(c1ccc(C(=O)Nc2ccc3c(c2)OCO3)cc1)S(C)(=O)=O	inconclusive: 23.1 µM [cytotoxic, single point]	

Later entries.

SMILES	Potency	activity change, negative = cytotoxic
CSc1ncccc1C(=O)Nc1ccc2nc(C)sc2c1	inconclusive: 9.2 µM [rising, partial curve]	
CN(C)/C=N/c1nc2nccc(-c3cccc(Cl)c3)n2n1	inactive	
COc1ccc(-c2oc3cc(O)c(OC)c(O)c3c(=O)c2OC)cc1O	active: 0.82 µM	
COc1ccc(C(C#N)=C2C=CC(=NO)c3ccccc32)cc1	active: 0.82 µM	
CCOC(=O)c1cnc(-n2nc(C)cc2C)nc1NNc1ncc(-c2ccccc2)cn1	inconclusive: 23.1 µM [cytotoxic, single point]	
Cc1ccc(CN2C(=O)N(c3ccc(F)cc3)C(=O)C2CC(=O)Nc2ccc(Cl)cc2)cc1 (stereo unspecified)	inactive	
COc1cc(CNc2ccc(N3CCN(C(C)=O)CC3)cc2)ccc1OCc1ccc(F)cc1	inactive	
COc1ccc(Cc2noc(CN(C)Cc3ccc(-n4cccn4)cc3)n2)cc1OC	inconclusive: 29.1 µM [cytotoxic, partial curve, poor fit]	
COc1ccc(NC(=O)CSC2=Nc3ccccc3C3=NC(CCC(=O)NCc4cccs4)C(=O)N23)cc1 (stereo unspecified)	inactive	
O=C(Nc1cccc(S(=O)(=O)Nc2ccc(Cl)cc2)c1)c1cc2c(s1)CCCC2	inactive	
O=C(O)c1ccc(NC2=C(Cl)C(=O)c3ccccc3C2=O)cc1	inconclusive: 29.1 µM [cytotoxic, single point]	
Nc1nc2ncc(CNc3ccc(C(=O)NC(CCC(=O)O)C(=O)O)cc3)nc2c(=O)[nH]1 (stereo unspecified)	inconclusive: 9.2 µM [rising, partial curve, poor fit]	
Cc1cccc(NS(=O)(=O)c2cccc(C(=O)NCc3ccccc3CN3CCOCC3)c2)c1	inconclusive: 29.1 µM [cytotoxic, single point]	
CCOc1ccc(NC(=O)CSc2nc3c(oc4ccccc43)c(=O)n2-c2cc(C)cc(C)c2)cc1	inconclusive: 29.1 µM [rising, single point]	
Cc1c(C(=O)NCc2ccc(Cl)c(Cl)c2)sc(=O)n1Cc1ccccc1F	inconclusive: 29.1 µM [cytotoxic, single point]	
CN(C)CCCNCC(=O)c1c(-c2ccccc2)n(C)c2ccccc12	inconclusive: 29.1 µM [cytotoxic, single point]	
COC(=O)[C@@]12C[C@@H](CC(=O)N3CCCCC3)C(=O)N(Cc3cccc4ccccc34)C1=CCC(C)(C)C2	inconclusive: 29.1 µM [cytotoxic, single point]	
COc1ccc2[nH]c3c(N4CCc5ccccc5C4)ncnc3c2c1	active: 2.59 µM	
COc1ccc(-c2csc(C(C)(O)c3ccncc3)n2)cc1OC (stereo unspecified)	inconclusive: 29.1 µM [cytotoxic, single point]	
COc1cc(C(=O)Nc2ccc3c(c2)nc(C)n3C)cc(OC)c1OC	active: 4.11 µM	
CCC(C(=O)N1CCN(c2ccccc2OC)CC1)c1ccccc1 (stereo unspecified)	inconclusive: 18.4 µM [cytotoxic, single point]	
Cc1ccc2c3c(cccc13)-c1ccccc1C2=O	inactive	
NC(=O)[C@H]1CC2(CC(c3cccc(NC(=O)COc4ccc(Cl)cc4)c3)=NO2)CN1C(=O)C(c1ccccc1)c1ccccc1 (stereo partly specified)	inconclusive: 29.1 µM [cytotoxic, single point]	
C=CCN(C(=O)CC(NC(C)=O)c1ccccc1)c1nc(-c2ccc(S(C)(=O)=O)cc2)cs1 (stereo unspecified)	inconclusive: 18.4 µM [cytotoxic, single point]	

Full records, looked up by structure:
O=C(Nc1cccc(S(=O)(=O)Nc2ccc(Cl)cc2)c1)c1cc2c(s1)CCCC2 is listed with Potency: inactive
O=C(O)c1ccc(NC2=C(Cl)C(=O)c3ccccc3C2=O)cc1 is listed with Potency: inconclusive: 29.1 µM [cytotoxic, single point]
Cc1ccc2c3c(cccc13)-c1ccccc1C2=O is listed with Potency: inactive

Next entries follow.

SMILES	Potency	activity change, negative = cytotoxic
Cc1cc(Sc2ncnc(N)c2[N+](=O)[O-])ncn1	active: 4.61 µM	
C[n+]1cccc2c(Br)ccc([O-])c21		inconclusive: 49.8%
COc1ccc(COC(=O)C2CCN(C(=O)c3ccc(Cl)cc3)CC2)cc1F	inconclusive: 32.6 µM [cytotoxic, single point]	
COc1cccc(/C=C2/SC(=S)N(CCC(=O)N3CCOCC3)C2=O)c1	active: 16.4 µM	
CCCCCCCCNc1ncnc2ccccc12	active: 0.651 µM	
CC(=O)Nc1ccc(S(=O)(=O)NCCC(=O)N2CCN(C(c3ccccc3)c3ccccc3)CC2)cc1	inactive	
C=CS(=O)(=O)N(Cc1ccccc1Br)[C@H](CO)CC(C)C	active: 23.1 µM	
COc1ccc2c(c1)c(=Cc1ccc(N(C)C)cc1)c1cc(-c3ccccc3)[n+](C)n12	active: 3.66 µM	
CC1CCC/C(=N\NC(=O)c2ccncc2)C1 (stereo unspecified)	inactive	
Cc1ccc(-c2csc(NC(=O)c3cccc(C)c3)c2C(=O)O)cc1	inconclusive: 18.4 µM [cytotoxic, single point]	
CCCCOc1ccc(CNC(=O)Cc2ccc(NC(=O)N3CCCCc4ccccc43)cc2)cc1	inconclusive: 23.1 µM [cytotoxic, single point]	
CCCc1cc(=O)[nH]c(SCC(=O)Nc2c(C)n(C)n(-c3ccccc3)c2=O)n1	inactive	
CCN1CCN(C(=O)C23CCC(C)(C(=O)C2Br)C3(C)C)CC1 (stereo unspecified)	inconclusive: 0.092 µM [rising, full curve]	
Cc1ccc(CSCC2Nc3ccc(C(=O)N4CCN(c5ccc(F)cc5)CC4)cc3NC2=O)cc1 (stereo unspecified)	inconclusive: 16.4 µM [cytotoxic, single point]	
COc1ccccc1C(C(=O)c1ccccc1)c1ccc2ccccc2c1 (stereo unspecified)	inconclusive: 16.4 µM [cytotoxic, partial curve]	
O=C(CNc1cccc2ccccc12)N/N=C/c1ccc[nH]1	inconclusive: 0.0058 µM [rising, full curve, poor fit]	
O=C(OCC(=O)N1CCN(C(=O)c2ccco2)CC1)c1cc(-c2ccccc2)nc2ccccc12	inactive	
CCS(=O)(=O)c1ncc(Cl)c(C(=O)Nc2ccc(S(=O)(=O)N3CCCC(C)C3)cc2)n1 (stereo unspecified)	active: 3.66 µM	
Cc1cc(N2CCN(Cc3cn(C)nc3-c3ccccc3F)CC2)cc(C)n1	active: 6.51 µM	
CCN(CC)C(=O)N1c2ccccc2C=Cc2ccccc21	active: 3.66 µM	
O=C(N/N=C/c1cc(Cl)ccc1O)c1ccncc1	inconclusive: 20.6 µM [cytotoxic, partial curve, poor fit]	
COc1ccc(Nc2ccccc2NC(=O)c2ccccc2Br)cc1	inconclusive: 25.9 µM [cytotoxic, single point]	
CC(C)(C)C(=O)NC(NC(=O)C(C)(C)C)c1ccc([N+](=O)[O-])cc1	inactive	
